The target of the assay is titin Ig domains Z4-Z5 (Res. 942-1173), bait in a modified pLexA vector (human) (UniProt Q8WZ42). Description: two-hybrid; library screen: titin Z4-Z5 bait in modified pLexA in S. cerevisiae L40, human skeletal muscle cDNA library in pGAD10; SD/-His/-Leu/-Trp, 30°C, beta-galactosidase colony lift filter assay.

By UniProt entry, the sequences of proteins in these tests, tags left out. Residues count along the entry.
UniProt Q8WZ42, residues 942-1173: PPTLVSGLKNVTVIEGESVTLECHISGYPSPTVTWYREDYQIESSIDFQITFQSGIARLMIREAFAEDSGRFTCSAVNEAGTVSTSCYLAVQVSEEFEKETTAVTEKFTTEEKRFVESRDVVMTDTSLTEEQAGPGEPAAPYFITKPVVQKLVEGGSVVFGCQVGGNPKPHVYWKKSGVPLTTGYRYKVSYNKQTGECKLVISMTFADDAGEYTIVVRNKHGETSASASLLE

Results are given in words; binding and its absence hold for the method and conditions named. Some binding calls cover weakened binding; strength is not graded here.

This is an account of results in PMC8547954, “Myopalladin knockout mice develop cardiac dilation and show a maladaptive response to mechanical pressure overload” (eLife, 2021).

B1: myopalladin (MYPN) library clones, the longest starting at amino acid 814 (domain or fragment, UniProt Q86TC9-1 814-1320)
chain: PIPVSPTSRIQNPVAFLSSVLPSLPAIPPTNAMGLPRSAPSMPSQGLAKKNTKSPQPVNDDNIRETKNAVIRDLGKKITFSDVRPNQQEYKISSFEQRLMNEIEFRLERTPVDESDDEIQHDEIPTGKCIAPIFDKRLKHFRVTEGSPVTFTCKIVGIPVPKVYWFKDGKQISKRNEHCKMRREGDGTCSLHIESTTSDDDGNYTIMAANPQGRISCSGHLMVQSLPIRSRLTSAGQSHRGRSRVQERDKEPLQERFFRPHFLQAPGDMVAHEGRLCRLDCKVSGLPPPELTWLLNGQPVLPDASHKMLVRETGVHSLLIDPLTQRDAGTYKCIATNKTGQNSFSLELSVVAKEVKKAPVILEKLQNCGVPEGHPVRLECRVIGMPPPVFYWKKDNETIPCTRERISMHQDTTGYACLLIQPAKKSDAGWYTLSAKNEAGIVSCTARLDIYAQWHHQIPPPMSVRPSGSRYGSLTSKGLDIFSAFSSMESTMVYSCSSRSVVESDEL
For the molecule B1, the binding entry was “binds”.
